Experimental data published in PubChem BioAssay AID504467 (National Center for Advancing Translational Sciences (NCATS), 2011).
Out of some 330,000 compounds screened, about 7,700 (2.3%) were called active. Inconclusive results, whose numbers are uncertain, are shown with a selection of clear calls. The call rests on the fitted dose curve; in most records, active means well fitted inhibition curve with a large enough effect; inconclusive means small, poorly fitted or top-dose-only effect, or effect the other way; inactive means flat fitted curve, though single readings scatter. A potency beside an inconclusive call is a rough fit, not a confirmed value.

Test: qHTS screen for small molecules that inhibit ELG1-dependent DNA repair in human embryonic kidney (HEK293T) cells expressing luciferase-tagged ELG1; further: nearly all actives have a fitted effect of over 55% in size
Details: HEK293T ELG1-luciferase reporter, luminescence, 16 h, DNA damage induced by 5-fluorouridine; activity change, negative = inhibition: at 46.1 µM (top of the series)
In short: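 Cells (2,000 per well) received 5-fluorouridine plus test compound or DMSO and were incubated 16 hr at 37 °C, 5% CO2. Luciferase activity was read by luminescence 30 min after ONE-Glo addition; signal suppression marked inhibition of damage-induced ELG1 function.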
On the % scale 0 is the no-effect control and ±100 the full control effect; potency means the concentration at half of the fitted maximal effect.

Row | SMILES | Potency | activity change, negative = inhibition
1 | CC(C)CCOc1ccc(C2=NNC(=O)CC2)cc1 | inconclusive: 16.4 µM [activator, partial curve] | 
2 | COc1cccc(NC(=O)CN(C)C(=O)c2cccc(S(=O)(=O)Nc3ccc(C)cc3)c2)c1 | inconclusive: 12.6 µM [inhibitor, single point] | 
3 | CC(=O)C1=C(c2ccc(Br)cc2)C(=O)c2ccccc2C1=O | active: 3.66 µM | 
4 | CCCc1cc2c(=O)c(-c3nc4ccccc4s3)c(COCC(=O)O)oc2cc1O | inconclusive: 7.3 µM [activator, partial curve, poor fit] | 
5 | CCCSc1nnc(CSc2ncccn2)n1C | inconclusive: 20.6 µM [activator, partial curve, poor fit] | 
6 | CCn1cnc2c1c(=O)n(CC(=O)O)c(=O)n2Cc1ccccc1 | inconclusive: 29.1 µM [activator, single point] | 
7 | Cc1ccc(OCC(=O)NC2CC(C)(C)NC(C)(C)C2)c(C)c1 |  | inactive: -0.227%
8 | CCN(Cc1cc(=O)n2cc(Cl)c(C)c(Cl)c2n1)Cc1nc2ccccc2c(=O)[nH]1 | inconclusive: 29.1 µM [inhibitor, single point] | 
9 | CCC1C/C(=C/c2ccco2)C(=O)/C(=C/c2ccco2)C1 (stereo not drawn) | inconclusive: 14.6 µM [activator, partial curve, poor fit] | 
10 | COc1cccc(Cn2nnc(C(=O)Nc3ccc(C)cc3)c2N)c1 | inconclusive: 20.6 µM [activator, partial curve, poor fit] | 
11 | COc1ccc(OC)c(/C=N/N2CCN(c3ccc(Cl)cc3)CC2)c1 |  | inactive: 4.8%
12 | O=C1CC(NS(=O)(=O)c2cccs2)CN1c1cccc(F)c1 (stereo not drawn) |  | inactive: 14.1%
13 | c1ccc(CNc2ncnc3scc(-c4cccs4)c23)nc1 | active: 8.2 µM | 
14 | Cc1cccc(NC(=O)C2CCN(C(=O)c3ccc(F)cc3)CC2)n1 |  | inactive: 6.76%
15 | CCOc1ccc(-c2cc(CCCC(=O)NCc3ccco3)no2)cc1 | inconclusive: 9.2 µM [activator, partial curve] | 
16 | CCCc1cc(=O)oc2c(C)c(OCC(=O)N3CCC(C(N)=O)CC3)ccc12 | inconclusive: 3.26 µM [inhibitor, single point] | 
17 | COc1ccc(C(=O)O/N=C(\N)c2ccncc2)cc1OC | inconclusive: 20.6 µM [activator, single point] | 
18 | COCCN(C(=O)CSc1n[nH]c(-c2ccccc2)n1)c1c(N)n(CC(C)C)c(=O)[nH]c1=O |  | inactive: 4.7%
19 | COC(=O)c1ccccc1SCC(=O)Nc1ccc(N2CCOCC2)cc1 | inconclusive: 18.3 µM [activator, partial curve] | 
20 | COc1ccccc1NC(=O)C(=O)NCCC1CCCCN1S(=O)(=O)c1ccc(F)cc1 (stereo not drawn) | inconclusive: 5.17 µM [inhibitor, partial curve] | 
21 | N#CC1=C(N)SC(N)=C(C#N)C1CCC1CCCCC1 | inconclusive: 18.4 µM [inhibitor, single point] | 
22 | Cc1ccc(S(=O)(=O)N2CCN(c3ccccc3)CC2)cc1 | inconclusive: 35.5 µM [activator, single point] | 
23 | Cc1nnc(NC2=NCCC2)o1 |  | inactive: 6.86%
24 | O=C(NCc1ccco1)c1cc(-c2ccccc2)nc2ccccc12 |  | inactive: -15.9%

Copied from above, nos. 3 to 5
Row | SMILES | Potency | activity change, negative = inhibition
3 | CC(=O)C1=C(c2ccc(Br)cc2)C(=O)c2ccccc2C1=O | active: 3.66 µM | 
4 | CCCc1cc2c(=O)c(-c3nc4ccccc4s3)c(COCC(=O)O)oc2cc1O | inconclusive: 7.3 µM [activator, partial curve, poor fit] | 
5 | CCCSc1nnc(CSc2ncccn2)n1C | inconclusive: 20.6 µM [activator, partial curve, poor fit] | 

(further entries)

Row | SMILES | Potency | activity change, negative = inhibition
25 | COC(=O)c1ccc(/C=C/C(=O)OCC(=O)Nc2sccc2C(N)=O)cc1 | inconclusive: 23.1 µM [inhibitor, partial curve] | 
26 | COc1ccccc1N1CCN(C2CCCN(Cc3cccc(O)c3)C2)CC1 (stereo not drawn) |  | inactive: -6.06%
27 | CC(Sc1nnc(C2CC2)n1C)C(=O)Nc1ccc(N2CCOCC2)cc1 (stereo not drawn) |  | inactive: -0.193%
28 | CCC(C(=O)NCCc1c[nH]c2ccc(C)cc12)c1ccccc1 (stereo not drawn) |  | inactive: -13.6%
29 | COc1cccc(C(=O)NC(C)C(c2cccs2)N2CCN(C)CC2)c1 (stereo not drawn) | inconclusive: 1.46 µM [activator, partial curve, poor fit] | 
30 | COc1cccc(NC(=O)CCC2CCN(C(=O)C3CC=CCC3)CC2)c1 (stereo not drawn) |  | inactive: -8.35%
31 | CC(=O)c1sc(-c2ccc(Cl)cc2)cc1N |  | inactive: 15.3%
32 | Oc1ccccc1C1Nc2cccc3cccc(c23)N1 |  | inactive: 18.4%
33 | Cc1cc2c(cc1S(=O)(=O)N(C)C1CCCCC1)OCC(=O)N2 | inconclusive: 20.6 µM [inhibitor, partial curve, poor fit] | 
34 | Cc1ccc2c(c1)C(=O)C(=O)N2CC1COc2ccccc2O1 (stereo not drawn) |  | inactive: 7.91%
35 | CCOC(=O)CON1C(=O)C(C)(C)N(OCC(=O)OCC)C(=O)C1(C)C |  | inactive: -4.69%
36 | COc1cc(C)ccc1S(=O)(=O)N1CCN(C23CC4CC(CC(C4)C2)C3)CC1 |  | inactive: -1.1%
37 | COc1ccc(Cl)cc1NC(=O)c1cc(-c2ccco2)on1 | inconclusive: 20.6 µM [activator, single point] | 
38 | C/C(=N\NC(=O)Cn1c(C)nc2ccccc21)c1cccs1 |  | inactive: -10.8%
39 | COc1cc(NC(=O)Cc2ccccc2)ccc1NC(=O)c1ccco1 |  | inactive: 20%
40 | Cc1ccc(NC(=O)CN(C)S(=O)(=O)c2ccc(Br)s2)cc1F | inconclusive: 16.4 µM [inhibitor, single point] | 
41 | O=C(O)CNS(=O)(=O)c1ccc(Br)s1 | inconclusive: 20.6 µM [activator, partial curve, poor fit] | 
42 | C/C(=N\Nc1ccccn1)c1ccc(OC(F)F)cc1 | inconclusive: 14.6 µM [activator, partial curve] | 
43 | Oc1ccc(Cl)cc1-c1cc(C(F)(F)C(F)F)nc(-c2ccccc2)n1 |  | inactive: -5.19%
44 | CC1CCCCN1C(=O)COc1ccc(NC(=O)c2ccco2)cc1 (stereo not drawn) | inconclusive: 14.6 µM [activator, single point] | 
45 | Cc1ccccc1NC(=S)c1nc2ccccc2[nH]1 | inconclusive: 20.6 µM [activator, single point] | 
46 | COc1cc(/C=N/NC(N)=O)ccc1OCC(=O)N1C(C)CCCC1C (stereo not drawn) | inconclusive: 25.9 µM [activator, single point] | 
47 | O=C(C(Cc1ccccc1)n1cccc1)N1CCN(c2ncccn2)CC1 (stereo not drawn) | inconclusive: 25.9 µM [inhibitor, single point] | 
48 | CCC(C)[C@H](NC(=O)[C@H](Cc1ccccc1)n1c(=O)[nH]c2ccccc2c1=O)C(=O)N1CCC[C@@H]1C(=O)O (stereo partly drawn) | inconclusive: 1.3 µM [activator, partial curve, poor fit] | 
